Assay results reported in paper PMC10646013.
Results are given in words; binding and its absence hold for the method and conditions named. Binding can be weak; no strength is given.

Amino acid sequences for entries named in this document (tags omitted). A change or cut given only in a name is not applied to a line headed by its entry.
UniProt P49069: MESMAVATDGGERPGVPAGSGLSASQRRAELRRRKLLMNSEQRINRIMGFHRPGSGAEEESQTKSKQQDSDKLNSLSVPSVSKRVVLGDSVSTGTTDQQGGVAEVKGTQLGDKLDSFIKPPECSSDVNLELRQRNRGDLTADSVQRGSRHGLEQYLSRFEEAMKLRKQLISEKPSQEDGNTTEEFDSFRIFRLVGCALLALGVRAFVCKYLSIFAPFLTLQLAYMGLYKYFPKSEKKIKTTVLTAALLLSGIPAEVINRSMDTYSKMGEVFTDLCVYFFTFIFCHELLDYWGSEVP

Tests used:
[1] = molecular target: T1, hsGet1 (human) (UniProt O00258); experiment: cryo-EM structure; hsGet2^ΔN-Get1/Get3 in PMAL-C8 amphipol; images acquired previously (ref. 24) re-processed in cryoSPARC, 3.2 Å, C2 symmetry; both purified
T1 sequence: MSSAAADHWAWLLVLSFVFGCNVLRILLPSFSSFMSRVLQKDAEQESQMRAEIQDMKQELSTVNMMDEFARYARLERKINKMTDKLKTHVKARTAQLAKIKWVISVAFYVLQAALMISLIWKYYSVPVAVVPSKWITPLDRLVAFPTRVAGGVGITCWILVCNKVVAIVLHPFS

[2] = molecular target: T1, hsGet1 (human); experiment: cryo-EM structure; hsGet2^ΔN/Δα3’-Get1 complexed with apo hsGet3, reconstituted in PMAL-C8 amphipol; single-particle reconstruction at 4.2 Å, no symmetry applied; both purified

hsGet2^ΔN (from UniProt P49069) (domain or fragment)
binding [1]: binds

hsGet2^ΔN/Δα3’ (from UniProt P49069) (domain or fragment)
binding [2]: binds
